Values of other authors in patent US20240287003A1, “ETHACRYNIC ACID DERIVATIVES AS INHIBITORS OF MPRO PROTEASE AND SARS-COV-2 REPLICATION” (UNIVERSITE EUROMEDITERRANEENNE DE FES, priority 2021, published 2024).
For at least one compound, name, drawing or mass did not settle the structure.

Tested on: SARS-COV-2
Details: Jin et al., Nature 2020; cited from earlier work

## O=c1c2ccccc2[se]n1-c1ccccc1 [Ebselen]
  antiviral activity at the cellular level: promising antiviral activity
